Assay results as given in paper PMC7481185.
No constants are given. Whether binding was seen depends on the method and setting. In cells and extracts the contact can be indirect. Some entries that bind do so weakly or less than the wild type.

Sequences of proteins named here, by UniProt entry; tags and fusion partners are left off.
UniProt P25696: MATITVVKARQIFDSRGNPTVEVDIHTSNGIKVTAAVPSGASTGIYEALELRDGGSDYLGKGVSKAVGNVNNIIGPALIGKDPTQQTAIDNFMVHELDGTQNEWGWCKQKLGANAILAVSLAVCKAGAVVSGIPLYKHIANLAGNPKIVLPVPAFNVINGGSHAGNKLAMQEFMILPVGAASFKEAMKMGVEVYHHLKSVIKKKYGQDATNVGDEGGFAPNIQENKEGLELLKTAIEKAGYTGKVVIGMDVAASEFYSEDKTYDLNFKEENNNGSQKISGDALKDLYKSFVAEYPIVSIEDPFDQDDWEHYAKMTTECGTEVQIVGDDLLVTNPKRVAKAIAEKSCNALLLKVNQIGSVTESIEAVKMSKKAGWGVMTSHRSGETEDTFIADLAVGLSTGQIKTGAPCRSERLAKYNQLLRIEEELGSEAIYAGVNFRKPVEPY

Target: enolase fluorescent fusion (FLIM-FRET) (Arabidopsis thaliana) (UniProt P25696)
Assay: FRET or BRET; FLIM-FRET; mCitrine donor and mCherry acceptor fusions constitutively expressed in plant cell culture; enolase-mCitrine with free mCherry as negative control

binding: binds
Substance: enolase fluorescent fusion (FLIM-FRET) (from UniProt P25696 1-444) (enzyme)
